Measurements taken from patent publication US20090226442A1.
Residue numbers refer to the chain shown, from its start. No constants are given. Whether binding was seen depends on the method and setting. Some entries that bind do so weakly or less than the wild type.

By UniProt entry, the sequences of proteins in these tests, tags left out. Where a name states a change or a piece, a line headed by the entry shows the natural chain unless it says otherwise.
UniProt Q04912: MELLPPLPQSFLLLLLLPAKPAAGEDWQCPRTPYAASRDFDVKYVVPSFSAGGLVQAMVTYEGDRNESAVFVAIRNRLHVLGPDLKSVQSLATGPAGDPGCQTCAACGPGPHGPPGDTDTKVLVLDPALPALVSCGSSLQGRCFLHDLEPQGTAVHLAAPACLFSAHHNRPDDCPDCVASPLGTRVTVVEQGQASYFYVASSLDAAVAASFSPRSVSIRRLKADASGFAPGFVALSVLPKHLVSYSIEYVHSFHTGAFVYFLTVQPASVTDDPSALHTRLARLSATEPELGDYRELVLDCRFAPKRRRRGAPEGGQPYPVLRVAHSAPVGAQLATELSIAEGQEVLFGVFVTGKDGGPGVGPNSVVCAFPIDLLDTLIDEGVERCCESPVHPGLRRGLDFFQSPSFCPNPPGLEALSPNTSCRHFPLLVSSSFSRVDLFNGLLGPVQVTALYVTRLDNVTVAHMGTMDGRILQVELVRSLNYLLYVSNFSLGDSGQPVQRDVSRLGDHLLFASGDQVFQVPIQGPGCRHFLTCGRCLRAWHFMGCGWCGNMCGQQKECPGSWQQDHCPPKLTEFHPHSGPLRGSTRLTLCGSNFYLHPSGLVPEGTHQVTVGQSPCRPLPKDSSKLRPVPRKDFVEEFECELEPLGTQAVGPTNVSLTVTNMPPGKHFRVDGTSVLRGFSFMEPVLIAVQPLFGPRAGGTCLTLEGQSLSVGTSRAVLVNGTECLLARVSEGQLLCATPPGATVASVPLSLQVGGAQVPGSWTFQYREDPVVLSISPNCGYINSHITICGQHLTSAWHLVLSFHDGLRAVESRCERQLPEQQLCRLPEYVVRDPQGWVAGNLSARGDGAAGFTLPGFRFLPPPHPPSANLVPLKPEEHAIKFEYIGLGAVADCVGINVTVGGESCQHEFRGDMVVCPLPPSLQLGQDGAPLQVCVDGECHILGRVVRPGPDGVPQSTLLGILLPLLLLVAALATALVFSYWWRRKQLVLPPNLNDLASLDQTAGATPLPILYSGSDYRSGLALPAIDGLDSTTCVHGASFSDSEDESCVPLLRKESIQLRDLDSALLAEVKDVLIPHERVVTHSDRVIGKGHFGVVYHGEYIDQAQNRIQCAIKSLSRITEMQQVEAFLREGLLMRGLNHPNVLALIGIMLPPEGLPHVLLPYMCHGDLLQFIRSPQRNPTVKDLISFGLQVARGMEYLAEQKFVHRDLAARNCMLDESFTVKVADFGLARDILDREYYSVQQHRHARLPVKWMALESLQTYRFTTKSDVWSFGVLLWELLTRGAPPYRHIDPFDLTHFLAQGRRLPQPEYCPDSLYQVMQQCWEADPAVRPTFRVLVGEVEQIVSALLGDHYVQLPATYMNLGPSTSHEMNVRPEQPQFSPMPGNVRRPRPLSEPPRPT

B1: 1P4A12 murine monoclonal anti-RON antibody (antibody, V domains shown)
VH: EVQLQQSGPELVKPGASMKISCKASGYSFTGYTMNWVKQSHGKKLEWIGLINPYNGGTIYNQKFKGKATLTVDKSSSTAYMELLSLTSEDSAVYYCARWLRRGGYAMDYWGQGASVTVSS
VL: DILLTQSPAILSVSPGERVSFSCRASQSIGTSIHWYQQRTNGSPRLLIKFASESISGIPSRFSGSGSGTDFTLSINSVESEDIADYYCQQSDSWPLTFGAGTKLEVK
B2: 1P5B10 murine monoclonal anti-RON antibody (antibody, V domains shown)
VH: B1 VH with K23R, S25A, Y27F, K44S, P53L, Y54N, I59S, Y60H, A114I
VL: B1 VL with S28N, F50Y, V106L
B3: 1P3B2 murine monoclonal anti-RON antibody (antibody, V domains shown)
VH: EVQLQQSGPELEKPGASVKISCKASGYSFTGYNMNWVKQSNGESLEWIGDIDPYYGGTRYNQKFKGKATLTVDKSSSTAYMQLKSLTSEDSAVYYCAREGRGFAYWGQGTLVTVSA
VL: DIQMTQSPASLSASVGETVTITCRASENIYSYLAWYQKKQGKSPQLLVYNAKTSVEGVPSRFSGSGSGIQFSLKINSLQPEDFGSYYCHCQHHYGTLPTFGGGTKLEIK
B4: 1P4A3 murine monoclonal anti-RON antibody (antibody, V domains shown)
VH: B3 VH with K19M, N41T, E43K, G56D, V72A, A97T
VL: DIQMTQSPASLSASVGETVTITCRASENIYSYLAWYQQKQGKSPQLLVYNAKTLAGGVPSRFSGSGSGTQFSLKINSLQPEDFGSYYCQHYYGTPLTFGAGTKLELK

target: soluble human RON protein (R&D Systems, catalog 1947) (human) (UniProt Q04912); test: ELISA on plate-coated soluble RON

Row | binding | Binder
1 | binds | B1
2 | binds | B2
3 | binds | B3
4 | binds | B4

target: soluble cynomolgus (Macaca fascicularis) RON protein (cynomolgus (Macaca fascicularis)); test: ELISA on plate-coated soluble cyno RON

Row | binding | Binder
5 | binds | B1
6 | binds | B2
7 | binds | B3
8 | binds | B4

target: soluble human RON protein (R&D Systems, catalog 1947) (human) (UniProt Q04912); test: ELISA on plate-coated soluble human RON

Row | binding | Binder
9 | binds | B1
10 | binds | B2
11 | binds | B3
12 | binds | B4
